PubChem BioAssay AID504744 – Drosophila RNAi Screening Center | 2011
Assay: 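Identify dsRNAs that increase or decrease phospho-dAkt after insulin treatment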 (primary screen). System: Drosophila Kc167 cells. Reagents: long dsRNA against Drosophila genes, 250 ng dsRNA per well of a 384-well plate. Duration: 3 days of knock-down, then overnight serum-free starvation before stimulation. Challenge: bovine insulin at 387 nM for 10 minutes after 12 h without serum. Detection: 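In-cell antibody fluorescence for phospho-dAkt in each well over DNA-dye signal, with log2 residuals expressed as z-scores adjusted for cell count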. Active means: 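Under insulin, a gene counts as a hit if the average z-score of two replicates lies above 2.5 or below -2.5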.
The deposit covers about 23,000 reagents; below is an unselected part of those that have a named target and a result. In the full data, 98 (0.43%) got an active call. 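Only hit calls are given; the phospho-dAkt signals, z-scores and hit direction were not deposited.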 No sequences are given here.

With rn [SID104192292], what was measured?
activity call: inactive

How did the screen score rn [SID104192335]?
activity call: inactive

For rn [SID104192336], what was measured?
activity call: inactive

With rn [SID104192338], what does the deposit list?
activity call: inactive

With rn [SID104201807], how do the results read?
activity call: inactive

For MCPH1 [SID104186101], what does the deposit list?
activity call: inactive

With MCPH1 [SID104187100], what does the deposit list?
activity call: inactive

How did the screen score MCPH1 [SID104201976]?
activity call: inactive

Which result is listed for ThrRS [SID104182635]?
activity call: inactive

Which result is listed for CG8908 [SID104187089]?
activity call: inactive

What did the screen give for Kaz [SID104194429]?
activity call: inactive

What is on record for CG3635 [SID104183521]?
activity call: inactive

With CG5122 [SID104182608], what was measured?
activity call: inactive

What did the screen give for CG13589 [SID104184017]?
activity call: inactive

What did the screen give for pon [SID104198615]?
activity call: inactive

What did the screen give for CG11145 [SID104185841]?
activity call: inactive

What is on record for CG3492 [SID104184165]?
activity call: inactive

For CG17472 [SID104182414], what does the deposit list?
activity call: inactive

With Nmdmc [SID104196552], what does the deposit list?
activity call: inactive

For PH4alphaMP [SID104196823], how do the results read?
activity call: inactive

Which result is listed for CG30393 [SID104184045]?
activity call: inactive

Which result is listed for CG17217 [SID104182384]?
activity call: inactive

How did the screen score CG2747 [SID104195242]?
activity call: inactive

With fws [SID104182761], what was measured?
activity call: inactive

With CG11475 [SID104183905], what does the deposit list?
activity call: inactive

Targets above whose gene name begins with R or r:
rn [SID104192292]: activity call = inactive
rn [SID104192335]: activity call = inactive
rn [SID104192336]: activity call = inactive
rn [SID104192338]: activity call = inactive
rn [SID104201807]: activity call = inactive

Continued.
For CG15864 [SID104194914], what was measured?
activity call: inactive

How did the screen score Cep97 [SID104180429]?
activity call: inactive

For CG8369 [SID104196205], what was measured?
activity call: inactive

With S6KL [SID104199141], what was measured?
activity call: inactive

What is on record for S6KL [SID104201288]?
activity call: inactive

Which result is listed for CG9517 (retired record) [SID104199984]?
activity call: inactive

With CG9517 (retired record) [SID104199985], what was measured?
activity call: inactive

For CG6191 [SID104185730], what does the deposit list?
activity call: inactive

For Kat60 [SID104192170], what was measured?
activity call: inactive

What is on record for CG15109 [SID104186328]?
activity call: inactive

With CG13488 [SID104183925], how do the results read?
activity call: inactive

How did the screen score fy [SID104183325]?
activity call: inactive

For Dh44-R1 [SID104186964], how do the results read?
activity call: inactive

For CG13896 [SID104188158], what was measured?
activity call: inactive
